# Experimental data: PubChem BioAssay AID504834 (National Center for Advancing Translational Sciences (NCATS), 2011)
# Among all 320,000 compounds or so, about 22,000 (6.9%) were called active. This list was built around the results that the source calls inconclusive (neither active nor inactive); the mix of calls is not that of the screen. Calls follow the shape of the dose curve; as a rule, active = well fitted inhibition curve with a large enough effect; inconclusive = small, poorly fitted or top-dose-only effect, or another doubt; inactive = no such curve, though single readings can be large or run the other way. Where the call is inconclusive, the potency comes from a doubtful curve fit.
# Assay: Primary qHTS for delayed death inhibitors of the malarial parasite plastid, 96 hour incubation
# Conditions: P. falciparum luciferase reporter growth; series mostly up to 28.7 µM; activity change, negative = inhibition: at the top concentration
# Procedure, shortened: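 Parasite growth measured via integrated firefly luciferase reporter in P. falciparum. Infected erythrocytes at 2% hematocrit, 0.05% parasitemia final were treated 96 hours at 37 C under 5% CO2, and luminescence was read.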
# % is scaled to controls: 0 for no effect and ±100 for the full control effect; potency is read from the fitted curve at half-maximal effect.
SMILES,Potency,"activity change, negative = inhibition"
Cn1c(=O)c2c(nc(N/N=C/c3ccc(OC(=O)c4ccco4)cc3)n2Cc2ccccc2)n(C)c1=O,"inconclusive: 14.7 µM [inhibitor, single point]",–
O=C(O)c1cc2c(cc1NC(=O)c1ccccc1C(F)(F)F)OCCCO2,–,inactive: 1.58%
CN(c1ccc(C(=O)Nc2ccccn2)cc1)S(=O)(=O)c1ccccc1,"inconclusive: 2.33 µM [inhibitor, full curve, poor fit]",–
CCCn1nc(NS(=O)(=O)c2cccc3nonc23)c2cc3cccc(C)c3nc21,"inconclusive: 18.5 µM [inhibitor, single point]",–
CCOc1ccc(S(=O)(=O)N2CCOCC2)cc1NC(=O)CN1C(=O)NC(C)(c2ccc(C)cc2)C1=O (stereo not given),"inconclusive: 5.86 µM [inhibitor, partial curve]",–
Cc1noc(C)c1S(=O)(=O)N(CC(=O)NC1CCC(C)CC1)c1ccc(C(C)C)cc1 (stereo not given),"inconclusive: 11.7 µM [inhibitor, single point]",–
COc1ccc(-n2c(O)c(C(C)=NCCc3c[nH]c4ccccc34)c(=O)[nH]c2=O)cc1,"inconclusive: 2.08 µM [inhibitor, full curve]",–
COc1cc(OC)cc(C(=O)c2c(C)c(C#N)c3ccccn23)c1,"inconclusive: 9.28 µM [inhibitor, single point]",–
COc1ccc(CCC(=O)N2CCN(S(=O)(=O)c3ccc4ccccc4c3)CC2)cc1,"inconclusive: 0.0083 µM [inhibitor, full curve, poor fit]",–
O=C(Nc1ccc(S(=O)(=O)NCc2ccccc2)cc1)c1ccc(Br)o1,"inconclusive: 18.5 µM [inhibitor, single point]",–
Cc1ncc(C[n+]2csc(CCOP(=O)(O)O)c2C)c(N)n1,–,inactive: -98.2%
Cc1cc(C(F)(F)F)nc(-n2cc(-c3cccc(N)c3)nn2)n1,"inconclusive: 1.31 µM [inhibitor, full curve, poor fit]",–
COc1ccc(-c2c3c(=O)n(C)c(=O)n(C)c3cn2Cc2cccnc2)cc1,"inconclusive: 18.5 µM [inhibitor, single point]",–
Cc1nn(-c2ccccn2)c2c1C(c1ccccc1Cl)C1=C(N2)c2ccccc2C1=O (stereo not given),active: 11.7 µM,–
CCOC(=O)N1CCC(N2CCCC(CO)(Cc3ccccc3C)C2)CC1 (stereo not given),"inconclusive: 18.5 µM [inhibitor, single point]",–
C/C(=N\NC(=O)CN(c1ccccc1)S(=O)(=O)c1ccccc1[N+](=O)[O-])C(C)(C)C,active: 11.7 µM,–
C/C=C/c1ccc(OCCCCN2C(=O)NC(C)(C)C2=O)c(OC)c1,"inconclusive: 18.5 µM [inhibitor, single point]",–
O=c1c2c(ncn2C2CCCC2)n(Cc2ccccc2)c(=O)n1CCOc1ccc(Br)cc1,active: 13.1 µM,–
O=C(OCC(=O)N1CCc2ccccc21)c1ccccc1,–,inactive: 187%
CC(=O)Nc1nc(-c2ccccc2)nc(-c2ccccc2OC(C)=O)n1,"inconclusive: 0.0165 µM [inhibitor, full curve, poor fit]",–

# Entries from the list above that contain a furan ring, fused or not, in the order listed:
SMILES,Potency,"activity change, negative = inhibition"
Cn1c(=O)c2c(nc(N/N=C/c3ccc(OC(=O)c4ccco4)cc3)n2Cc2ccccc2)n(C)c1=O,"inconclusive: 14.7 µM [inhibitor, single point]",–
O=C(Nc1ccc(S(=O)(=O)NCc2ccccc2)cc1)c1ccc(Br)o1,"inconclusive: 18.5 µM [inhibitor, single point]",–

# Next part.

SMILES,Potency,"activity change, negative = inhibition"
CC(C)(C)C(=O)Nc1ccc(Oc2ccc3c(c2)C(=O)N(c2ccc(O)cc2)C3=O)cc1,"inconclusive: 18.5 µM [inhibitor, partial curve, poor fit]",–
CCCNC(=O)c1sc2c(c1C(=O)Nc1ccccn1)CCCC2,"inconclusive: 11.7 µM [inhibitor, single point]",–
CCOC(=O)c1sc2nc(CSc3ccccc3)nc(N3CCCN(C)CC3)c2c1C,"inconclusive: 18.5 µM [inhibitor, partial curve, poor fit]",–
O=C(Nc1ccccc1F)C1COc2ccccc2O1 (stereo not given),"inconclusive: 0.147 µM [inhibitor, full curve, poor fit]",–
COC(=O)C(NC(=O)c1ccco1)(Nc1nc(C2CC2)cs1)C(F)(F)F (stereo not given),"inconclusive: 5.22 µM [inhibitor, partial curve]",–
O=c1c2ccccc2nc(-c2ccco2)n1-c1ccncc1,"inconclusive: 18.5 µM [inhibitor, single point]",–
C=CCNC(=O)N1CCCC(C(=O)c2cccc(Cl)c2)C1 (stereo not given),"inconclusive: 18.5 µM [inhibitor, single point]",–
Cc1ccc(NC(=O)c2cnc(N3CCN(c4ccccn4)CC3)c3ccccc23)c(Br)c1,"inconclusive: 13.1 µM [inhibitor, partial curve, poor fit]",–
Cc1onc(-c2ccccc2)c1C(=O)Nc1ccccc1NC(=O)c1c(-c2ccccc2)noc1C,"inconclusive: 18.5 µM [inhibitor, single point]",–
COc1ccc(-c2noc(-c3ccccc3C(=O)Nc3cccc(OC)c3)n2)cc1,"inconclusive: 18.5 µM [inhibitor, partial curve, poor fit]",–
CCOC(=O)c1c(C)n(CC(O)CN(CC)CC)c2cc(Br)c(OC)cc12 (stereo not given),active: 14.7 µM,–
COC(=O)CCCC1=CC2=CC(=O)C(C)(OC(=O)c3cccs3)C(=O)C2=CN1C1CCCC1 (stereo not given),"inconclusive: 18.5 µM [inhibitor, partial curve, poor fit]",–
O=C(NCCN1CCN(c2ccccc2)CC1)Nc1cccc(Cl)c1,–,inactive: 4.67%
COc1ccc(C(=O)NCCN2CCCC2)cc1[N+](=O)[O-],active: 2.62 µM,–
O=C(Cn1nnc2ccccc2c1=O)Nc1ccc2c(c1)CCC2,"inconclusive: 14.7 µM [inhibitor, partial curve, poor fit]",–
CCS(=O)(=O)N1CCC(C(=O)Nc2cccc(F)c2)CC1,"inconclusive: 1.17 µM [inhibitor, full curve, poor fit]",–
Cc1ccc(NC(=O)CN2C(=O)NC3(CCCCCC3)C2=O)cc1Cl,"inconclusive: 0.0052 µM [inhibitor, full curve, poor fit]",–
Cc1ccsc1C(=O)N1CCCC(CCC(=O)NCc2ccccc2F)C1 (stereo not given),"inconclusive: 18.5 µM [inhibitor, single point]",–
O=C(C1CCCCC1)N1CCN(c2nc(-c3ccc(F)cc3)cs2)CC1,–,inactive: 3.86%
CO[C@]12C[C@@H](COC(=O)c3cncc(Br)c3)CN(C)[C@@H]1Cc1cn(C)c3cccc2c13,"inconclusive: 19 µM [inhibitor, single point]",–
